Assay results as given in publication PMC12378234, “Enzyme-mediated aminoglycoside resistance without target mimicry” (Communications Chemistry, 2025).
“And” between values parts separate entries of the source, which are not always exact repeats. Identical values can stand only once. Like-named read-outs stand apart in the source and are kept apart here. This continues a long series; more values of the same kind are listed elsewhere.

System: BL21(DE3) E. coli transformed with pUCP18 vector expressing untagged AAC(3)-Ia
Assay type: cell-based
Protocol: Ten milliliters of LB containing […] ampicillin were inoculated from glycerol stocks of transformed BL21(DE3) E. coli containing genes expressing the proteins of interest in pUCP18 vectors. These cultures were incubated at 37 °C with 200 rpm agitation for 16 h. Turbidity was measured through OD600 with a NanoDrop OneC Spectrometer (Thermo Scientific). From the initial cultures, secondary 10 mL cultures were prepared with OD600 values of 0.1. These cultures were grown until OD600 values of 0.4–0.6 were reached and diluted to bring all cultures to the same OD600. Cultures were induced with 1 mM Isopropyl β-D-1-thiogalactopyranoside and incubated for 4 h. Two microliters of culture was added to 198 μL of LB with an appropriate aminoglycoside titration concentration. Each titration point was repeated n = 4 times. The formulated 96-well culture plate (Sarstedt) had OD600 measured on a 20-min interval over 17 h using a BioTek Cytation 5 Cell Imaging Multimode Reader, incubating at 37 °C with 282 cpm orbital agitation. Experiments were repeated with fresh cultures on separate days to ensure consistent trends. Data was analyzed in Microsoft Excel and GraphPad5. The remainder of the culture immediately had its RNA isolated for qPCR experiments.

CN[C@@H]1[C@@H](O)[C@@H](O[C@@H]2[C@@H](O)[C@H](O[C@H]3OC(CN)=CC[C@H]3N)[C@@H](N)C[C@H]2N)OC[C@]1(C)O [Sisomicin, sisomicin]
OD600 growth curve (3 ug/mL Sisomicin, time point 00:19:10): 0.104 and 0.102 and 0.1
OD600 growth curve (3 ug/mL Sisomicin, time point 00:39:10): 0.109 and 0.105 and 0.103
OD600 growth curve (3 ug/mL Sisomicin, time point 00:59:10): 0.118 and 0.112 and 0.109
OD600 growth curve (3 ug/mL Sisomicin, time point 01:19:10): 0.133 and 0.121 and 0.117
OD600 growth curve (3 ug/mL Sisomicin, time point 01:39:10): 0.154 and 0.133 and 0.13 and 0.127
OD600 growth curve (3 ug/mL Sisomicin, time point 01:59:10): 0.187 and 0.151 and 0.147 and 0.144
OD600 growth curve (3 ug/mL Sisomicin, time point 02:19:10): 0.226 and 0.175 and 0.172 and 0.168
OD600 growth curve (3 ug/mL Sisomicin, time point 02:39:10): 0.278 and 0.207 and 0.205 and 0.201
OD600 growth curve (3 ug/mL Sisomicin, time point 02:59:10): 0.334 and 0.242 and 0.246 and 0.234
OD600 growth curve (3 ug/mL Sisomicin, time point 03:19:10): 0.376 and 0.263 and 0.279
OD600 growth curve (3 ug/mL Sisomicin, time point 03:39:10): 0.405 and 0.276 and 0.305 and 0.284
OD600 growth curve (3 ug/mL Sisomicin, time point 03:59:10): 0.431 and 0.299 and 0.329 and 0.307
OD600 growth curve (3 ug/mL Sisomicin, time point 04:19:10): 0.449 and 0.314 and 0.343 and 0.319
OD600 growth curve (3 ug/mL Sisomicin, time point 04:39:10): 0.486 and 0.337 and 0.37 and 0.346
OD600 growth curve (3 ug/mL Sisomicin, time point 04:59:10): 0.522 and 0.361 and 0.398 and 0.374
OD600 growth curve (3 ug/mL Sisomicin, time point 05:19:10): 0.545 and 0.382 and 0.421 and 0.396
OD600 growth curve (3 ug/mL Sisomicin, time point 05:39:10): 0.571 and 0.402 and 0.44 and 0.415
OD600 growth curve (3 ug/mL Sisomicin, time point 05:59:10): 0.593 and 0.417 and 0.458 and 0.434
OD600 growth curve (3 ug/mL Sisomicin, time point 06:19:10): 0.617 and 0.428 and 0.476 and 0.447
OD600 growth curve (3 ug/mL Sisomicin, time point 06:39:10): 0.626 and 0.435 and 0.485 and 0.455
OD600 growth curve (3 ug/mL Sisomicin, time point 06:59:10): 0.631 and 0.443 and 0.495 and 0.461
OD600 growth curve (3 ug/mL Sisomicin, time point 07:19:10): 0.636 and 0.449 and 0.503 and 0.471
OD600 growth curve (3 ug/mL Sisomicin, time point 07:39:10): 0.64 and 0.455 and 0.514 and 0.479
OD600 growth curve (3 ug/mL Sisomicin, time point 07:59:10): 0.638 and 0.463 and 0.525 and 0.485
OD600 growth curve (3 ug/mL Sisomicin, time point 08:19:10): 0.639 and 0.469 and 0.531 and 0.496
OD600 growth curve (3 ug/mL Sisomicin, time point 08:39:10): 0.637 and 0.474 and 0.534 and 0.503
OD600 growth curve (3 ug/mL Sisomicin, time point 08:59:10): 0.638 and 0.488 and 0.54 and 0.519
OD600 growth curve (3 ug/mL Sisomicin, time point 09:19:10): 0.638 and 0.503 and 0.542 and 0.522
OD600 growth curve (3 ug/mL Sisomicin, time point 09:39:10): 0.634 and 0.509 and 0.545 and 0.521
OD600 growth curve (3 ug/mL Sisomicin, time point 09:59:10): 0.629 and 0.507 and 0.543 and 0.517
OD600 growth curve (3 ug/mL Sisomicin, time point 10:19:10): 0.623 and 0.506 and 0.541 and 0.515
OD600 growth curve (3 ug/mL Sisomicin, time point 10:39:10): 0.62 and 0.505 and 0.539 and 0.512
OD600 growth curve (3 ug/mL Sisomicin, time point 10:59:10): 0.617 and 0.504 and 0.536 and 0.51
OD600 growth curve (3 ug/mL Sisomicin, time point 11:19:10): 0.612 and 0.503 and 0.535 and 0.507
OD600 growth curve (3 ug/mL Sisomicin, time point 11:39:10): 0.61 and 0.502 and 0.532 and 0.508
OD600 growth curve (3 ug/mL Sisomicin, time point 11:59:10): 0.606 and 0.501 and 0.53 and 0.507
OD600 growth curve (3 ug/mL Sisomicin, time point 12:19:10): 0.603 and 0.5 and 0.527 and 0.505
OD600 growth curve (3 ug/mL Sisomicin, time point 12:39:10): 0.604 and 0.5 and 0.526 and 0.503
OD600 growth curve (3 ug/mL Sisomicin, time point 12:59:10): 0.601 and 0.499 and 0.523 and 0.502
OD600 growth curve (6 ug/mL Sisomicin, time point 00:19:10): 0.1 and 0.098 and 0.101 and 0.104
OD600 growth curve (6 ug/mL Sisomicin, time point 00:39:10): 0.102 and 0.1 and 0.103 and 0.106
OD600 growth curve (6 ug/mL Sisomicin, time point 00:59:10): 0.103 and 0.1 and 0.105 and 0.108
OD600 growth curve (6 ug/mL Sisomicin, time point 01:19:10): 0.103 and 0.1 and 0.106 and 0.11
OD600 growth curve (6 ug/mL Sisomicin, time point 01:39:10): 0.103 and 0.1 and 0.106 and 0.109
OD600 growth curve (6 ug/mL Sisomicin, time point 01:59:10): 0.103 and 0.1 and 0.105 and 0.11
OD600 growth curve (6 ug/mL Sisomicin, time point 02:19:10): 0.103 and 0.1 and 0.105 and 0.111
OD600 growth curve (6 ug/mL Sisomicin, time point 02:39:10): 0.102 and 0.1 and 0.105 and 0.111
OD600 growth curve (6 ug/mL Sisomicin, time point 02:59:10): 0.102 and 0.101 and 0.106 and 0.112
OD600 growth curve (6 ug/mL Sisomicin, time point 03:19:10): 0.102 and 0.101 and 0.107 and 0.112
OD600 growth curve (6 ug/mL Sisomicin, time point 03:39:10): 0.102 and 0.109 and 0.113
OD600 growth curve (6 ug/mL Sisomicin, time point 03:59:10): 0.103 and 0.104 and 0.11 and 0.114
OD600 growth curve (6 ug/mL Sisomicin, time point 04:19:10): 0.103 and 0.105 and 0.113 and 0.115
OD600 growth curve (6 ug/mL Sisomicin, time point 04:39:10): 0.103 and 0.107 and 0.114 and 0.116
OD600 growth curve (6 ug/mL Sisomicin, time point 04:59:10): 0.104 and 0.108 and 0.115 and 0.117
OD600 growth curve (6 ug/mL Sisomicin, time point 05:19:10): 0.105 and 0.11 and 0.116 and 0.117
OD600 growth curve (6 ug/mL Sisomicin, time point 05:39:10): 0.105 and 0.111 and 0.117 and 0.118
OD600 growth curve (6 ug/mL Sisomicin, time point 05:59:10): 0.105 and 0.112 and 0.118 and 0.119
OD600 growth curve (6 ug/mL Sisomicin, time point 06:19:10): 0.106 and 0.112 and 0.119
